“And” between values parts separate entries of the source, which are not always exact repeats. Identical values can stand only once. Like-named read-outs stand apart in the source and are kept apart here.
Legend:
[1] = system: bone marrow progenitor cells; assay: Bone marrow progenitor cell clonogenic assay (CFU-GM), human
Method: A clonogenic assay was performed using bone marrow progenitor cells derived from the blood of mice and humans.

[2] = system: MRP1 over expressing H69AR line; assay: Efflux pump drug resistance, antiproliferation assay, MRP1 over expressing line; type: cell-based; details: ratio of IC50s, MRP1 over expressing versus parent line; for 5d H69AR/H69: 5 days; for 3d H69AR/H69: 3 days
Method: (§1) The compounds were screened for cytotoxicity using human non small cell lung cancer cell line H460. […]
(§2) Cellular drug resistance was determined using the antiproliferation assay described above.

[3] = system: DX5, which over expresses the MDR 1 efflux pump; assay: Efflux pump drug resistance, antiproliferation assay, MDR 1 over expressing line; type: cell-based; details: ratio of IC50s, MDR 1 over expressing versus parent line; for 3d DX5/MESSA: 3 days; for 5d DX5/MESSA: 5 days
Method: as §1, §2

[4] = Mouse CFU-GM IC50 / Human CFU-GM IC50
[5] = Mouse CFU-GM IC90 / Human CFU-GM IC90

| Structure (SMILES) | Ratio [1, 4] | Ratio [1, 5] | Ratio [1] | 5d H69AR/H69 [2] | 3d DX5/MESSA [3] | 5d DX5/MESSA [3] | 3d H69AR/H69 [2] |
| --- | --- | --- | --- | --- | --- | --- | --- |
| CC[C@@]1(O)C(=O)OCc2c1cc1n(c2=O)Cc2cc3c(N)cccc3nc2-1 [9-amino camptothecin, reference compound] | 75 | 88 |  |  |  |  |  |
| CCc1c2c(nc3ccc(O)cc13)-c1cc3c(c(=O)n1C2)COC(=O)[C@]3(O)CC [SN-38, reference compound] |  |  | 85 and 100 |  |  |  |  |
| CC[C@@]1(O)C(=O)OCc2c1c([N+](=O)[O-])c1n(c2=O)Cc2cc3ccccc3nc2-1 [TH1317] |  |  |  | 1.4116 |  |  |  |
| CC[C@@]1(O)C(=O)OCc2c1c(N)c1n(c2=O)Cc2cc3ccccc3nc2-1 [TH1320] | 6 | 4 |  |  | 1.034 |  |  |
| CCc1c2c(nc3ccccc13)-c1c([N+](=O)[O-])c3c(c(=O)n1C2)COC(=O)[C@]3(O)CC [TH1332] |  |  |  | 2.0633 | 1.2 | 1.17 |  |
| CC[C@@]1(O)C(=O)OCc2c1c([N+](=O)[O-])c1n(c2=O)Cc2c-1nc1ccccc1c2CO [TH1333] |  |  |  |  | 2.3 |  |  |
| CCc1c2c(nc3ccccc13)-c1c(N)c3c(c(=O)n1C2)COC(=O)[C@]3(O)CC [TH1338] | 6 | 7 |  |  | 2.791 |  | 2.1818 |
| CC[C@@]1(O)C(=O)OCc2c1c(N)c1n(c2=O)Cc2c-1nc1ccccc1c2C [TH1339] | 56 | 22 |  |  | 0.788 |  | 2.1538 |
| CC[C@@]1(O)C(=O)OCc2c1c(N)c1n(c2=O)Cc2cc3c(N)cccc3nc2-1 [TH1386] | 23 | 17 |  |  | 0.538 |  | 1.383 |
| CCc1c2c(nc3ccccc13)-c1c(NC=O)c3c(c(=O)n1C2)COC(=O)[C@]3(O)CC [TH1408] | 8 | 8 |  |  | 0.5 |  | 1.1777 |
| CC[C@@]1(O)C(=O)OCc2c1c([N+](=O)[O-])c1n(c2=O)Cc2c-1nc1ccccc1c2/C=N/OC(C)(C)C [TH1431] |  |  |  | 2.36 |  | 2.0196 | >2.6 |
| CC[C@@]1(O)C(=O)OCc2c1c([N+](=O)[O-])c1n(c2=O)Cc2c-1nc1ccccc1c2C [TH1446] |  |  |  | 3.1 |  | 1.113 |  |
| CC[C@@]1(O)C(=O)OCc2c1c(N)c1n(c2=O)Cc2c-1nc1ccccc1c2/C=N/OC(C)(C)C [TH1499] |  |  |  |  | 0.556 |  | 2.1336 |
| CC[C@@]1(O)C(=O)OCc2c1c(NC=O)c1n(c2=O)Cc2cc3ccccc3nc2-1 [TH1589] | 8 | 9 |  |  |  |  |  |
| CC[C@@]1(O)C(=O)OCc2c1cc1n(c2=O)Cc2cc3c(CN(C)C)c(O)ccc3nc2-1 [Topotecan, reference compound] |  |  | 16 and 14 |  |  |  |  |
